In test [1] the target is GST-SBD (substrate binding domain of HSC70, aa394-546) (human) (UniProt P11142). The test can be described thus: pull-down.
For test [2], the target named is GST-HSC70 (human) (UniProt P11142). The test can be described thus: pull-down.
Test [3] has the same target. The test can be described thus: pull-down. The source holds these as a separate data set.
The target in test [4] is HA-ASC (apoptosis-associated speck-like protein containing a CARD) (UniProt Q9ULZ3). Nature of the test: co-IP.
The target in test [5] is GFP-NLRC4-H443P (human) (UniProt Q9NPP4). Nature of the test: co-IP.
Test [6] deals with GFP-NLRC4 (WT-NLRC4) (human) (UniProt Q9NPP4). The test can be described thus: co-IP.
Test [7] deals with Myc-NLRC4 (human) (UniProt Q9NPP4). Nature of the test: co-IP.
Test [8] addresses GFP-NLRC4-V341A (human) (UniProt Q9NPP4). The test can be described thus: co-IP.
Test [9] deals with T1, GFP-aa91-253 (NBD of NLRC4) (human) (UniProt Q9NPP4).
T1 sequence: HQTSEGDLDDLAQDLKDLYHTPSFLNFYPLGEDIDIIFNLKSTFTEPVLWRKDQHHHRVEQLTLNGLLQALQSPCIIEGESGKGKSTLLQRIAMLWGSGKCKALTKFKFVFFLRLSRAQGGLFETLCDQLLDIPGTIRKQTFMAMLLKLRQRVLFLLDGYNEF
The test can be described thus: co-IP.

Amino acid sequences for entries named in this document (tags omitted). A change or cut given only in a name is not applied to a line headed by its entry. Residues count along the entry.
UniProt Q9ULZ3, whole entry: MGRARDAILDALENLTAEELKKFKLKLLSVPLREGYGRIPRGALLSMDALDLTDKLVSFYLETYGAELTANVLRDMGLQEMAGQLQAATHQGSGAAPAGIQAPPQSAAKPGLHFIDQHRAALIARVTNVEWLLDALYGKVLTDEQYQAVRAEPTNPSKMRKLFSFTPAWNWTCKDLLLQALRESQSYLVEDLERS
UniProt P11021, 19-654: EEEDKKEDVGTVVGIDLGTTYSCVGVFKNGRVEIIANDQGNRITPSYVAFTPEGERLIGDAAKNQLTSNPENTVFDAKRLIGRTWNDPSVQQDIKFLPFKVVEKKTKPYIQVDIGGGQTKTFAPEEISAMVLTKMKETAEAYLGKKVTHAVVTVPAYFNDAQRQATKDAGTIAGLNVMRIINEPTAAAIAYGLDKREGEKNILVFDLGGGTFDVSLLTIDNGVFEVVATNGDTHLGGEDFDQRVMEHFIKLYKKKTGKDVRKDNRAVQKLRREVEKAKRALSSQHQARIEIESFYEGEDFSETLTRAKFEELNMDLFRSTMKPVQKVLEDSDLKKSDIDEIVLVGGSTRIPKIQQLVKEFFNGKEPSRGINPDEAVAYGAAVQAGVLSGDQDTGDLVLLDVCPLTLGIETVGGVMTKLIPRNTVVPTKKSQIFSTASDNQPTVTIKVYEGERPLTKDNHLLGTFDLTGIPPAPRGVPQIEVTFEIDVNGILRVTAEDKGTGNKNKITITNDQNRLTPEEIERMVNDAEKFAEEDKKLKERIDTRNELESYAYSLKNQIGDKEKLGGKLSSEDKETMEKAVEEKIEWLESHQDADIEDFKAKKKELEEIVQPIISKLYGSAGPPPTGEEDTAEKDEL

The target in test [10] is GFP-NLRC4-T337S (human) (UniProt Q9NPP4). The test can be described thus: co-IP.
Test [11] concerns the target T2, GFP-CARD (NLRC4) (human) (UniProt Q9NPP4).
T2 sequence: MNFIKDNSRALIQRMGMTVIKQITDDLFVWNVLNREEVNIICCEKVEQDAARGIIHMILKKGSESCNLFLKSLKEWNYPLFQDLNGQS
The test can be described thus: co-IP.

Test [12] concerns the target Myc-NLRC4-H443P (human) (UniProt Q9NPP4). The test can be described thus: co-IP.
Test [13] deals with T3, GFP-LRR (NLRC4 aa658-1024) (human) (UniProt Q9NPP4).
T3 sequence: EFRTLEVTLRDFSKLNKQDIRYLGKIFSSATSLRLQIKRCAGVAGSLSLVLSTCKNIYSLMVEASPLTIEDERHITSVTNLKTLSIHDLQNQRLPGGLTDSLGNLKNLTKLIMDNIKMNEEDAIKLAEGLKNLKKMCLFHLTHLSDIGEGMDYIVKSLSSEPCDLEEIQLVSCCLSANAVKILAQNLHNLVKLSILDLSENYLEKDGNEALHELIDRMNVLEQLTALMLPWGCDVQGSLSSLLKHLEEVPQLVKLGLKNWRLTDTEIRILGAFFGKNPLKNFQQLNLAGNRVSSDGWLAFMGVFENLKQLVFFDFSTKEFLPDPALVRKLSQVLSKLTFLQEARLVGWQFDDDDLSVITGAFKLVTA
Nature of the test: co-IP.

Test [14] has as its target endogenous NLRC4 (differentiated THP1 cells) (human (endogenous in THP1)) (UniProt Q9NPP4). The test can be described thus: co-IP.

Where two headings read alike, the source gives them in different places. No constants are given. Whether binding was seen depends on the method and setting. In cells and extracts the contact can be indirect. Some binding calls cover weakened binding; strength is not graded here. For some assays here: Where a sequence is shown, tags or fusion partners need not be part of it.

For “GFP-NLRC4 (WT-NLRC4) (from UniProt Q9NPP4 1-1024)”, the binding entry in test [1] and in test [2] was “binds” throughout.
In the case of “GFP-NLRC4-H443P (from UniProt Q9NPP4 1-1024)”, the binding entry in [3] is “binds weakly”; in test [4] it was “binds”; in test [1], “binds”; in [2], “binds”.
In the case of “GRP78, endogenous in HEK293T (from UniProt P11021 19-654)”, the binding result in [5] and in test [6] was “no binding” throughout.
“heat shock cognate protein 70 (HSC70), endogenous in HEK293T (from UniProt P11142 1-646)”: the binding result is given as “binds” in test [7]; “binds” in test [8]; “binds” in test [5]; “binds” in test [9]; “binds” in [10]; “no binding” in test [11]. Also, the binding result in test [6], in test [12] and in test [13] was “binds” each time.
For the molecule “heat shock cognate protein 70 (HSC70), endogenous in differentiated THP1 cells (from UniProt P11142 1-646)”, the binding entry in [14] is recorded as “binds”.

B1: GFP-LRR (NLRC4 aa658-1024) (domain or fragment, UniProt Q9NPP4 658-1024)
chain: T3 sequence
Consider B1, for which, in test [2], the binding result is given as “binds”.

B2: GFP-aa91-253 (NBD of NLRC4) (domain or fragment, UniProt Q9NPP4 91-253)
chain: T1 sequence
B2: in test [2], the binding entry is recorded as “binds”.

Source of the values: doi:10.1101/578138.
